The entries are a selection whose mix differs from that of the whole data set. This is a noisy data set.
Compound: COC(=O)/C=C/c1ccccc1 [methyl cinnamate]
Experiment: log2 ratio of iodoacetamide-alkyne labeling of the cysteine site, DMSO over compound (competition); higher = stronger covalent engagement of the cysteine by the compound, active = 1 or more
Settings: 500 µM; treatment time 1 h; system: HEK293T cell lysate
How it was run: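 Three replicates, each with duplicate channels, were prepared from HEK293T lysate (2 mg/mL) treated with vehicle or electrophile at 500 µM for 1 h at ambient temperature. Iodoacetamide alkyne was then applied for 1 h, and samples were clicked to sCIP-TMT reagents, pooled, trypsin-digested overnight at 37 °C, enriched on streptavidin, acid-eluted and analysed on Orbitrap Eclipse LC-MS/MS with FAIMS, with FragPipe quantification. The log2 competition ratio per cysteine is the mean control-channel divided by the mean compound-channel reporter intensity. Cysteines quantified in only one replicate were left out.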

Chains of the proteins cited; added tags and fusions are not shown. Lines headed by an entry give the natural chain unless they say otherwise; changes in a name come on top.
UniProt Q9ULT8: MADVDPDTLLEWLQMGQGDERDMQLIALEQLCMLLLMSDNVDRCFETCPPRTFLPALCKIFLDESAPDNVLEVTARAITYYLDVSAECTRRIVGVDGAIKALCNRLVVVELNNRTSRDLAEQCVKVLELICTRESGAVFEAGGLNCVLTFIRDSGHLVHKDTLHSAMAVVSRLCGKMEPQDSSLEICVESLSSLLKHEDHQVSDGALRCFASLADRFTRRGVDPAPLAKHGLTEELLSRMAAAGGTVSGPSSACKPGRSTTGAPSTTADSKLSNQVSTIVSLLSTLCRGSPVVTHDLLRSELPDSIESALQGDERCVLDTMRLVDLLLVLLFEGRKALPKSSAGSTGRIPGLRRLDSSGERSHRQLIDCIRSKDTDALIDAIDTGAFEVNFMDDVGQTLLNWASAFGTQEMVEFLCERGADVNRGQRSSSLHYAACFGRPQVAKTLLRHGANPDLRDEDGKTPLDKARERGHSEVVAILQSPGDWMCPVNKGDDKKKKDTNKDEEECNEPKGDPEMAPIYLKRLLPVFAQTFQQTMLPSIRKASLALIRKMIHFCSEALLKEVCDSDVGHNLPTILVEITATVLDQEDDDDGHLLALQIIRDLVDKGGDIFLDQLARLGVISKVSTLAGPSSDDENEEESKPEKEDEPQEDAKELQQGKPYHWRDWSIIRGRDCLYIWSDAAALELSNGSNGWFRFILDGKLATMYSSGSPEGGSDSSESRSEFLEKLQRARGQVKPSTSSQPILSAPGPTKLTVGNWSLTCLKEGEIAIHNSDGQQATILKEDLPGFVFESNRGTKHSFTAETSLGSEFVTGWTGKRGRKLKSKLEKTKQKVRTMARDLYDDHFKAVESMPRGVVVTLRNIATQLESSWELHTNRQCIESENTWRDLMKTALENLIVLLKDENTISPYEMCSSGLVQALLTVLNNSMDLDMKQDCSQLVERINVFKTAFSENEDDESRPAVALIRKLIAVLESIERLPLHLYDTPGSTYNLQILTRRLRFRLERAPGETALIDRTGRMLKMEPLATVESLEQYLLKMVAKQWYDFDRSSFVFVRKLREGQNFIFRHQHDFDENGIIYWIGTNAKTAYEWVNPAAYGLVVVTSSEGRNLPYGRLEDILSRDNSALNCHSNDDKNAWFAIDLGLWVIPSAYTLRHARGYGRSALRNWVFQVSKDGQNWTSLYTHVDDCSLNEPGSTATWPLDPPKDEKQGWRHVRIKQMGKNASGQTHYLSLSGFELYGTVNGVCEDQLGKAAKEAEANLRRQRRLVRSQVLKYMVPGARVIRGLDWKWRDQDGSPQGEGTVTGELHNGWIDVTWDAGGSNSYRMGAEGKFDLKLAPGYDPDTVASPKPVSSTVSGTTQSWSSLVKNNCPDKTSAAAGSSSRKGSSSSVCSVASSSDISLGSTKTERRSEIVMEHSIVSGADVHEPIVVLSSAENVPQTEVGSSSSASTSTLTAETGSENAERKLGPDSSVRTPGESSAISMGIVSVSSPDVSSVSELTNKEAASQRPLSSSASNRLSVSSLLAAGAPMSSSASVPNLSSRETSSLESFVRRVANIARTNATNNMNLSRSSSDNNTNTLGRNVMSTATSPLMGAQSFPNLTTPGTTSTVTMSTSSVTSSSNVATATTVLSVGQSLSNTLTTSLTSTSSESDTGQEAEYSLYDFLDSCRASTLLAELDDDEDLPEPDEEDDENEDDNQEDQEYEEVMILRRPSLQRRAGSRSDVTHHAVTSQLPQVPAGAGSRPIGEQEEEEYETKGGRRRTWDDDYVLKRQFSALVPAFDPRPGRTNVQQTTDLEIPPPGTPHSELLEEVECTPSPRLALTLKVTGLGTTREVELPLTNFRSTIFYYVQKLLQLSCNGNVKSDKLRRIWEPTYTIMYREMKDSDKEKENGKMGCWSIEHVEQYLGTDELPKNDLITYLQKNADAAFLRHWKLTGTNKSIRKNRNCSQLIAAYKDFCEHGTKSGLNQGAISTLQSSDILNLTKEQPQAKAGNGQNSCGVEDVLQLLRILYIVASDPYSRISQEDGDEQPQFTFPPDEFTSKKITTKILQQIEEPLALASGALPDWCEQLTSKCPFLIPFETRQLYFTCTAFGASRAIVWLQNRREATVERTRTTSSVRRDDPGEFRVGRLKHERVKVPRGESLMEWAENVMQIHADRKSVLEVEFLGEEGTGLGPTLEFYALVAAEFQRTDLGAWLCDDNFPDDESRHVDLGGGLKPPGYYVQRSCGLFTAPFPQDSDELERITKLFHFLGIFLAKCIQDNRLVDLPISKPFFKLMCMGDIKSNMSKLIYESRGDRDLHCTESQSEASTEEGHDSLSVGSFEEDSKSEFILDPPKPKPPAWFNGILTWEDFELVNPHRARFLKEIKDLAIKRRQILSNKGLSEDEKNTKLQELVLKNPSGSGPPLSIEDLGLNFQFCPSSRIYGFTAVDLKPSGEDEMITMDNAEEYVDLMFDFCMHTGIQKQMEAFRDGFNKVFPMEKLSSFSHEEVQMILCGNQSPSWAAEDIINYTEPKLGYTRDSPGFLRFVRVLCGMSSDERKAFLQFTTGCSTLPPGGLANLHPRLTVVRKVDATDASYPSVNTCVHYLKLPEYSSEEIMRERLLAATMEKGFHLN
UniProt Q9UNS1: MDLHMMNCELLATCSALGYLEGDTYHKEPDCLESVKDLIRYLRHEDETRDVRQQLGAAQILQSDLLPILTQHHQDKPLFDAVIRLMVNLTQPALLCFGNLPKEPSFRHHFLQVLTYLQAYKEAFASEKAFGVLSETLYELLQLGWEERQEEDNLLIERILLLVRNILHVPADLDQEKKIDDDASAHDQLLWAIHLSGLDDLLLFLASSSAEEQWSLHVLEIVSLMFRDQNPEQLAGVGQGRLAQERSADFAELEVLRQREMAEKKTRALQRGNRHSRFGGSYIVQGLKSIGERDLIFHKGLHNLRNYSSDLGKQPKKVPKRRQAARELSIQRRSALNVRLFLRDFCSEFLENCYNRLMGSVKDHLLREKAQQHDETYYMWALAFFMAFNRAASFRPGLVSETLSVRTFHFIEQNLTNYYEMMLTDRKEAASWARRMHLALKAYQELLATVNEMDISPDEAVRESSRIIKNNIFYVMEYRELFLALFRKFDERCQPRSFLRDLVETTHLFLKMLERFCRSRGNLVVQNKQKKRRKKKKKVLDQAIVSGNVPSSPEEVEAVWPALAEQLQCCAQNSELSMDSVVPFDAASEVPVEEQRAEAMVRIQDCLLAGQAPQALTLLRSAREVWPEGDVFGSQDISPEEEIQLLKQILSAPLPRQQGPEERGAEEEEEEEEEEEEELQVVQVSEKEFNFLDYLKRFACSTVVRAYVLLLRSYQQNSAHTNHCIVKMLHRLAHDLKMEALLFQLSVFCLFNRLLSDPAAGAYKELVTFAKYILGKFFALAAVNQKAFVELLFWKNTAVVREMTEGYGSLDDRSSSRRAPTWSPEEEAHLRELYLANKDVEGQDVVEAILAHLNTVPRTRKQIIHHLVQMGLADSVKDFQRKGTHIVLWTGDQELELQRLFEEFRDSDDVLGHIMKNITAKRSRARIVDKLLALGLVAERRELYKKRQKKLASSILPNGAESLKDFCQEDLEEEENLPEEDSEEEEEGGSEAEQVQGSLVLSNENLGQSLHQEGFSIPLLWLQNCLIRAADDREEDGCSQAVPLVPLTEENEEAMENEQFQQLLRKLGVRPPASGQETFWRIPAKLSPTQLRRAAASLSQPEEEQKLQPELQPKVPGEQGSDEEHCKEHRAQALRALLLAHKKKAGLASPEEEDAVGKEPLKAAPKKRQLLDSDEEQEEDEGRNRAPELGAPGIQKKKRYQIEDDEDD
UniProt Q9UPN9: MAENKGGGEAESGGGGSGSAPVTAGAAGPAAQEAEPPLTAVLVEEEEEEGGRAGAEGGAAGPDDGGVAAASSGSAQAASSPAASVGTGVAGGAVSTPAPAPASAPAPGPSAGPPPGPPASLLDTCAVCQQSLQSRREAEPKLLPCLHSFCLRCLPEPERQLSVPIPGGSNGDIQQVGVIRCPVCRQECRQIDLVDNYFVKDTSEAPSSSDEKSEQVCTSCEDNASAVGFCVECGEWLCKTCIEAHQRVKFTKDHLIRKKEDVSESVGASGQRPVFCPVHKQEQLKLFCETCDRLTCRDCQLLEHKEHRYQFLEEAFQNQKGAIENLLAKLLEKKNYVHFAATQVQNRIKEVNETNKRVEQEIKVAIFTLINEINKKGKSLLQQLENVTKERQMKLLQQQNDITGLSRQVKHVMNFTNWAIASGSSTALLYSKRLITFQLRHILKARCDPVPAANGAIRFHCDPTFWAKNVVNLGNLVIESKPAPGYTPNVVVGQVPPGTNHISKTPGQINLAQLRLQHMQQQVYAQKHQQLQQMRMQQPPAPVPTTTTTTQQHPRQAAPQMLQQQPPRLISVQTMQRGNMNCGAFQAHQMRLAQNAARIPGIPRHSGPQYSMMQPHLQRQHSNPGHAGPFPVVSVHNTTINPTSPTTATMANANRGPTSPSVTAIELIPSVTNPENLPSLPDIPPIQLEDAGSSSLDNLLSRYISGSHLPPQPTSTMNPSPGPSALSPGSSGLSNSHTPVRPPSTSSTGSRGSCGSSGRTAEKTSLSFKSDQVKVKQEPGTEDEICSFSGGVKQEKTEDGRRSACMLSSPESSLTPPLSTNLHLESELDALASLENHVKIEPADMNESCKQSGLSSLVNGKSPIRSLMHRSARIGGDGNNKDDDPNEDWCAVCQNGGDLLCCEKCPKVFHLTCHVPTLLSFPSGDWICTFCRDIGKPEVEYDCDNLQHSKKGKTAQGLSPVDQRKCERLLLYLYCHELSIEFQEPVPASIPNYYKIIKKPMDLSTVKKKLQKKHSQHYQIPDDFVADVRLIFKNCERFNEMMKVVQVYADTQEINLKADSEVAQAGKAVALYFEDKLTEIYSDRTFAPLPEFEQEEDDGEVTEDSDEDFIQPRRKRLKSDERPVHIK
UniProt Q9Y3L5: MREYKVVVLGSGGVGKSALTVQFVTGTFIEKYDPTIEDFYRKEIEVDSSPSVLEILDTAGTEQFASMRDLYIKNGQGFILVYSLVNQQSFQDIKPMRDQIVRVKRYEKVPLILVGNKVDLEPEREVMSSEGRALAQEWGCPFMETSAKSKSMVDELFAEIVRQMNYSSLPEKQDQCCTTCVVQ
UniProt Q9UIV1, whole entry: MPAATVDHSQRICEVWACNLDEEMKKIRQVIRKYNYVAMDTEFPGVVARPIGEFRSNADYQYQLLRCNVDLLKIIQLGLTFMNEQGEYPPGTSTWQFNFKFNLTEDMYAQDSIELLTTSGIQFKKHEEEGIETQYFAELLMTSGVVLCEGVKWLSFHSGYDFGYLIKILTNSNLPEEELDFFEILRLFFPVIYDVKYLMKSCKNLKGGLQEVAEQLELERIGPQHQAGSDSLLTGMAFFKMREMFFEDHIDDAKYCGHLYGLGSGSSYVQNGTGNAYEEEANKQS
UniProt Q9Y221: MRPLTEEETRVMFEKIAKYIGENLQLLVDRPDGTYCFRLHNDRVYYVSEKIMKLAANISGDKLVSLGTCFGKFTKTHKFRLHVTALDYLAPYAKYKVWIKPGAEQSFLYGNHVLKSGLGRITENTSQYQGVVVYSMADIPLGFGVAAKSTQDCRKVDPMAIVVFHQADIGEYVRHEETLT
UniProt Q9UQR0: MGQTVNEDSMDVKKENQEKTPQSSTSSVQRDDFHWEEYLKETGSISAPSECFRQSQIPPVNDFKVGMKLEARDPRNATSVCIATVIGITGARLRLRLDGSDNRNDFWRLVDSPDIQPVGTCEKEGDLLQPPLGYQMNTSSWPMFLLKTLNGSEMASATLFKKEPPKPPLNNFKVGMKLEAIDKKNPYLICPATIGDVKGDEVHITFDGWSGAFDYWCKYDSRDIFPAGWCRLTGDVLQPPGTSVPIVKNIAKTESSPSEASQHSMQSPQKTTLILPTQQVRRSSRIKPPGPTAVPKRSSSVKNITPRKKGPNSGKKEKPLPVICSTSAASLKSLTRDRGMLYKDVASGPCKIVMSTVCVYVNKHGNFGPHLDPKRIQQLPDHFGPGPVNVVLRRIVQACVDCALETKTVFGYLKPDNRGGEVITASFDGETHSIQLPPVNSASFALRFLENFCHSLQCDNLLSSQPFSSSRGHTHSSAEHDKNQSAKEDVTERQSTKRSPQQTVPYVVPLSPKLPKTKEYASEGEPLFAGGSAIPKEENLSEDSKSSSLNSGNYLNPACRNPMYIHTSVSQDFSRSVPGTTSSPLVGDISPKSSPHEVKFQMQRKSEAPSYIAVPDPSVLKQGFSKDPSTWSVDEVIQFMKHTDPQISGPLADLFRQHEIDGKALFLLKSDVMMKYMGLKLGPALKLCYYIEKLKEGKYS
UniProt Q9UNE7: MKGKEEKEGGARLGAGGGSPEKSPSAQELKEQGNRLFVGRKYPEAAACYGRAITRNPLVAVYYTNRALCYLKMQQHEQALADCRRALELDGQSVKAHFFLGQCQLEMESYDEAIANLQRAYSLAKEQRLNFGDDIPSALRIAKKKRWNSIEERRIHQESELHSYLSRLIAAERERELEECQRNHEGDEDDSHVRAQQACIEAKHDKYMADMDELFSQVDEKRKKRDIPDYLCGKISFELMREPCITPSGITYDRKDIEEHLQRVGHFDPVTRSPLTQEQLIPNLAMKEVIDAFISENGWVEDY

log2 ratio of iodoacetamide-alkyne labeling, inactive:
PA2G4 C179 (UniProt Q9UQ80) -0.0874
DLGAP4 C726 (UniProt Q9Y2H0) 0.4
TPX2 C594 (UniProt Q9ULW0) 0.519
PRPF19 C5 (UniProt Q9UMS4) 0.298
HECTD1 C1389 (UniProt Q9ULT8) 0.202
HECTD1 C2579 (UniProt Q9ULT8) 0.00497
USP24 C1628 (UniProt Q9UPU5) 0.159
UniProt Q9UPN7_C689 0.0483
RCL1 C13 (UniProt Q9Y2P8) -0.209
TDRKH C419 (UniProt Q9Y2W6) 0.132
UniProt Q9Y3A3_C134 0.173
STRAP C340 (UniProt Q9Y3F4) 0.00348
TIMELESS C606 (UniProt Q9UNS1) 0.422
SRRM2 C1480 (UniProt Q9UQ35) 0.351
MACF1 C7245 (UniProt Q9UPN3) 0.141
TRIM33 C153 (UniProt Q9UPN9) 0.276
TRIM33 C145 (UniProt Q9UPN9) 0.309
DIS3 C194 (UniProt Q9Y2L1) -0.116
UniProt Q9Y3L5_C140 0.138
UniProt Q9Y448_C296 0.0745
CNOT7 C18 (UniProt Q9UIV1) 0.16
NIP7 C36 (UniProt Q9Y221) -0.019
DDX20 C181 (UniProt Q9UHI6) 0.101
NUDT5 C76 (UniProt Q9UKK9) 0.163
DRG1 C195 (UniProt Q9Y295) 0.163
TRIM33 C150 (UniProt Q9UPN9) 0.309
TPX2 C364 (UniProt Q9ULW0) 0.521
UniProt Q9UIF8_C1223 -0.171
GIT1 C576 (UniProt Q9Y2X7) 0.355
CPSF3 C527 (UniProt Q9UKF6) -0.106
HECTD1 C1995 (UniProt Q9ULT8) 0.228
SCML2 C324 (UniProt Q9UQR0) 0.314
MED13 C402 (UniProt Q9UHV7) 0.216
UniProt Q9UI30_C100 -0.0185
STUB1 C103 (UniProt Q9UNE7) -0.0172
UniProt Q9Y2K2_C333 0.323
EXOSC1 C40 (UniProt Q9Y3B2) 0.0537

At a glance, some entries already given.
log2 ratio of iodoacetamide-alkyne labeling, inactive:
MACF1 C7245 (UniProt Q9UPN3) 0.141
TRIM33 C153 (UniProt Q9UPN9) 0.276
TRIM33 C145 (UniProt Q9UPN9) 0.309
DIS3 C194 (UniProt Q9Y2L1) -0.116
UniProt Q9Y3L5_C140 0.138
UniProt Q9Y448_C296 0.0745
CNOT7 C18 (UniProt Q9UIV1) 0.16
NIP7 C36 (UniProt Q9Y221) -0.019
DDX20 C181 (UniProt Q9UHI6) 0.101

— the supplement of paper PMC11006884
